According to PubChem BioAssay AID1671190 (National Center for Advancing Translational Sciences (NCATS), 2021):
About 6,100 (1.1%) of roughly 580,000 compounds were called active. Inconclusive means that the source gave no clear call. Such entries were picked first, then a sample of the others. Calls follow the shape of the dose curve; as a rule, active = well fitted inhibition curve with a large enough effect; inconclusive = small, poorly fitted or top-dose-only effect, or another doubt; inactive = no such curve, though single readings can be large or run the other way. Potencies of inconclusive entries are doubtful fits and often do not repeat.

Chains of the proteins cited; added tags and fusions are not shown. Lines headed by an entry give the natural chain unless they say otherwise; changes in a name come on top.
UniProt P18054: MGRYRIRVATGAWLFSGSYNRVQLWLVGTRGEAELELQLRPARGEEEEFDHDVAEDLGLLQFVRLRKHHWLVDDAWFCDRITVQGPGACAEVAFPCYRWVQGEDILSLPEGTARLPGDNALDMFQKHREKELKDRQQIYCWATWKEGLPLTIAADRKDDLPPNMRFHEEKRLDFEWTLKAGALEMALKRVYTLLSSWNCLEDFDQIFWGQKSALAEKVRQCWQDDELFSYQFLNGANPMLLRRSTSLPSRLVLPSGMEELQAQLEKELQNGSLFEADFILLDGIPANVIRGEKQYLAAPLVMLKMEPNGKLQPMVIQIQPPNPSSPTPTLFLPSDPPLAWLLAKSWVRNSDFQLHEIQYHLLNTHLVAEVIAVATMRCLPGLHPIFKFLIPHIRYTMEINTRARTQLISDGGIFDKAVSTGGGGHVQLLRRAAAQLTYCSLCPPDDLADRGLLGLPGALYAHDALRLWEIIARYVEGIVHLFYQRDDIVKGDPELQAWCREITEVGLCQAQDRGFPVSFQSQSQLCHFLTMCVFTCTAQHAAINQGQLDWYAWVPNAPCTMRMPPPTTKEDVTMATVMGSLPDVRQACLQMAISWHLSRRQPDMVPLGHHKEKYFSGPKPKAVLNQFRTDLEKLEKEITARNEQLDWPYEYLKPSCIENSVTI

What follows are compounds tested against Polyunsaturated fatty acid lipoxygenase ALOX12 (Homo sapiens) (UniProt P18054) (assay: Primary qHTS assay for inhibitors of human arachidonate 12S-lipoxygenase (ALOX12): Round 2). Settings: purified 12hLO, xylenol orange hydroperoxide absorbance; activity change, negative = inhibition: at 108 µM (top of the series) unless noted.
In short: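 Purified human 12hLO at 150 nM in 25 mM Hepes, 0.01% Triton X-100, pH 7.0, preincubated 15 min at room temperature with compound. Reaction started with 40 uM arachidonic acid, 30 min at room temperature. Hydroperoxide measured by Fe-xylenol orange, 573/405 nm absorbance ratio.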
% is scaled to controls: 0 for no effect and ±100 for the full control effect; potency is read from the fitted curve at half-maximal effect.

| SMILES | Potency | activity change, negative = inhibition |
| --- | --- | --- |
| O=C(CCC[C@H]1NC[C@@H]2C[C@H]1CN(Cc1ccccc1)C2)N1CCN(C2CCCCC2)CC1 | inconclusive: 5.62 µM [inhibitor, full curve] | – |
| Cc1ccc(C2CC(=O)Nc3sc(C(N)=O)c(N)c32)cc1 (configuration not stated) | inconclusive: 17.8 µM [inhibitor, full curve] | – |
| Nc1ccc(NC(=O)c2ccc(C(=O)Nc3ccc(N)cc3)cc2)cc1 | – | inactive: 6.01% |
| Cc1ccc(NCSc2ccc(Cl)cc2)cc1 | – | inactive: -11.7% |
| O=C(O)/C(=C\c1ccccc1Cl)c1ccc(S(=O)(=O)N2CCCCC2)s1 | inconclusive: 50.1 µM [inhibitor, partial curve, poor fit] | – |
| CCN(CC(=O)NCc1ccc(F)cc1)Cc1nc2ccccc2c(=O)[nH]1 | – | inactive: 0.447% |
| COC(=O)c1cc2c(cc1Cl)SC(=NCCCN1CCOCC1)NS2(=O)=O | inconclusive: 50.1 µM [inhibitor, partial curve, poor fit] | – |
| CCCCN(CCCC)C(=O)/C=C/c1cccc([N+](=O)[O-])c1 | inconclusive: 89.1 µM [inhibitor, single point] | – |
| CO/N=C/c1ccc(C(=O)Oc2ccc(Cl)cc2C)cc1 | – | inactive: -4.55% |
| CCOc1ccc(N)cc1OC | – | inactive: 2.1% |
| CC(C)CC(NC(=O)Cn1c(=O)c2c(ncn2C)n(C)c1=O)c1ccccc1 (configuration not stated) | inconclusive: 0.224 µM [inhibitor, full curve, poor fit] | – |
| O=C(O)CNC(=O)c1ccc(Sc2ccccc2)c([N+](=O)[O-])c1 | – | inactive: -12.3% |
| CN(c1ccccc1)c1ccc2nnc(-c3cc(C(=O)NCc4ccncc4)ccn3)n2n1 | inconclusive: 22.4 µM [inhibitor, full curve] | – |
| COc1ccc(Cl)cc1NC(=O)C1CC(=O)N(c2ccc(F)cc2)C1 (configuration not stated) | inconclusive: 50.1 µM [inhibitor, single point] | – |
| CC(=O)Nc1ccc(NC(=O)C2CCN(C(=O)C3CC(=O)N(c4ccc(C)cc4)C3)CC2)cc1 (configuration not stated) | – | inactive: 1.8% |
| CCC(=O)N1CCc2c(sc3ncnc(N(C)Cc4ccccc4)c23)C1 | – | inactive: 6.39% |
| O=C(COC(=O)c1ccco1)c1ccc2c(c1)OCCCO2 | inconclusive: 0.224 µM [inhibitor, full curve, poor fit] | – |
| CCOc1ccccc1N/C(=C(/C(Cl)=C(Cl)Cl)[N+](=O)[O-])n1cncn1 | inconclusive: 11.2 µM [inhibitor, partial curve, poor fit] | – |
| CC1(C)CC2CC(C)(CN2S(=O)(=O)c2ccccc2[N+](=O)[O-])C1 (configuration not stated) | – | inactive: 365% |

| SMILES | Potency | activity change, negative = inhibition |
| --- | --- | --- |
| O=[N+]([O-])c1ccccc1S(=O)(=O)Nc1ccc(Nc2ccccc2)cc1 | inconclusive: 3.55 µM [inhibitor, full curve, poor fit] | – |
| COc1cccc(-c2cccc(C(=O)N3CCC4(CCCN(C)C4=O)C3)c2)c1 (configuration not stated) | inconclusive: 89.1 µM [inhibitor, partial curve] | – |
| COc1ccc(CCNC(=O)C(=O)Nc2ccccc2F)cc1 | – | inconclusive: -32.2% [inhibitor] |
| O=C(CSc1nnc(-c2ccccn2)n1Cc1ccccc1)NC1CCCC1 | inconclusive: 141 µM [inhibitor, partial curve, poor fit] | – |
| COc1ccc(CNc2ncc(-c3ccccc3)n2C)c2ccccc12 | active: 10 µM | – |
| COc1ccc(Br)c(C=O)c1OS(=O)(=O)c1ccc(C)cc1 | inconclusive: 56.2 µM [inhibitor, partial curve, poor fit] | – |
| COc1ccc(NC(=O)COc2coc(CN3CCc4ccccc4C3)cc2=O)cc1 | – | inactive: -5.06% |
| COc1ccc(OC)c(NC(=O)C2(C)CCN2C(=O)C(C)(C)c2ccccc2)c1 (configuration not stated) | – | inactive: -7.5% |
| Cc1ccc(CNC(=O)C(=O)Nc2c3c(nn2-c2ccccc2)CSC3)cc1 | – | inactive: -45.3% |
| COc1ccc(NC(=S)Nc2ccccc2OC)c(OC)c1 | inconclusive: 39.8 µM [inhibitor, partial curve] | – |
| CCCCn1nc(C(=O)Nc2cc(C(F)(F)F)ccc2N2CCOCC2)ccc1=O | – | inactive: 5.33% |
| CC(C)N(CCNC(=O)c1cc(C2CC2)nc2ccccc12)C(C)C | – | inactive: 6.05% |
| CC(C)=NNC(=O)c1cccc(C(=O)NN=C(C)C)c1 | – | inactive: 61.9% |
| Cn1ccc2c(C(=O)NCc3cccnc3)nc(-c3cccc4cc[nH]c34)cc21 | – | inactive: 77.2% [at 176 µM] |
| CC1=NN(c2ccccc2)C(=O)C1C(=S)SC1CC(=O)NC1=O (configuration not stated) | inconclusive: 7.08 µM [inhibitor, full curve] | – |
| CCCCCCCCOc1ccc(C(=O)Oc2ccc(C#N)cc2)cc1 | – | inactive: 4.25% |
| COCC(=O)N[C@H]1C[C@@H](CO)N(Cc2ccc(C#N)cc2)C1 | inconclusive: 7.08 µM [inhibitor, partial curve] | – |
| COc1cccc(CNC(=O)c2ccc3c(c2)c(C)c(C)n3Cc2ccccc2)c1 | – | inactive: -7.82% |

Eleven entries from above, ordered by length of the SMILES, smallest number first:

| SMILES | Potency | activity change, negative = inhibition |
| --- | --- | --- |
| COc1ccc(NC(=S)Nc2ccccc2OC)c(OC)c1 | inconclusive: 39.8 µM [inhibitor, partial curve] | – |
| COc1ccc(CCNC(=O)C(=O)Nc2ccccc2F)cc1 | – | inconclusive: -32.2% [inhibitor] |
| CC(C)=NNC(=O)c1cccc(C(=O)NN=C(C)C)c1 | – | inactive: 61.9% |
| CCCCCCCCOc1ccc(C(=O)Oc2ccc(C#N)cc2)cc1 | – | inactive: 4.25% |
| COc1ccc(CNc2ncc(-c3ccccc3)n2C)c2ccccc12 | active: 10 µM | – |
| CC1=NN(c2ccccc2)C(=O)C1C(=S)SC1CC(=O)NC1=O (configuration not stated) | inconclusive: 7.08 µM [inhibitor, full curve] | – |
| COCC(=O)N[C@H]1C[C@@H](CO)N(Cc2ccc(C#N)cc2)C1 | inconclusive: 7.08 µM [inhibitor, partial curve] | – |
| Cc1ccc(CNC(=O)C(=O)Nc2c3c(nn2-c2ccccc2)CSC3)cc1 | – | inactive: -45.3% |
| O=[N+]([O-])c1ccccc1S(=O)(=O)Nc1ccc(Nc2ccccc2)cc1 | inconclusive: 3.55 µM [inhibitor, full curve, poor fit] | – |
| Cn1ccc2c(C(=O)NCc3cccnc3)nc(-c3cccc4cc[nH]c34)cc21 | – | inactive: 77.2% [at 176 µM] |
| COc1ccc(OC)c(NC(=O)C2(C)CCN2C(=O)C(C)(C)c2ccccc2)c1 (configuration not stated) | – | inactive: -7.5% |
